Measured values taken from PubChem BioAssay AID1259415 (National Center for Advancing Translational Sciences (NCATS), 2018).
Hit rate of the full screen: of about 410,000 compounds, about 18,000 (4.4%) were called active. This list was built around the results that the source calls inconclusive (neither active nor inactive); the mix of calls is not that of the screen. No stated cut-off is given here; in the data, active means activity change below about -60%; inconclusive means no clear call, values can overlap the other calls; inactive means above about -39%.

Assay: qHTS Assay for inhibitors of the human cytomegalovirus (HCMV)
Conditions: HFF cells, HCMV-luciferase reporter, 72 h; at 57.5 µM; hits give low values
Procedure, shortened: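 Compounds were evaluated in HFFs infected with an HCMV luciferase reporter virus (MOI 1 PFU/cell). Luciferase in lysates collected 72 h post infection served as the replication measure.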
On the % scale 0 is the no-effect control and ±100 the full control effect.

Question: With O=c1oc2cccnc2n1CCS(=O)(=O)c1ccc(F)cc1 as the compound, how does the activity change, negative = inhibition read?
Answer: inconclusive: -57%

Question: For CC1CCCC(C)N1C(=O)c1ccc(CS(=O)(=O)c2ccccc2)cc1 (stereo not given), which activity change, negative = inhibition is on record?
Answer: inconclusive: -52.8%

Question: Which activity change, negative = inhibition does the source give for CCOC(=O)c1cnn(-c2ccccc2)c1-c1ccccc1 here?
Answer: inconclusive: -41.8%

Question: Which activity change, negative = inhibition does the source give for N#Cc1cccc(CN2CCC(=O)N([C@H](CO)c3ccccc3)CC2)c1 here?
Answer: inactive: -24.2%

Question: Which activity change, negative = inhibition does the source give for CCOCCCNC(=O)C(NC(=O)c1ccc(NC(C)=O)cc1)c1ccc(C)cc1 (stereo not given) here?
Answer: inactive: 26.5%

Question: With CCCCC(=O)N1CCN(c2ccc(OC)cc2[N+](=O)[O-])CC1 as the compound, how does the activity change, negative = inhibition read?
Answer: inconclusive: -44%

Question: With Cc1ccc(NC(=O)CSc2nc(=O)n(Cc3ccco3)c3c2CCC3)cc1F as the compound, how does the activity change, negative = inhibition read?
Answer: inactive: -25.1%

Question: Which activity change, negative = inhibition does the source give for CCN1CCN(S(=O)(=O)c2ccc(F)c(C(=O)Nc3c(F)cc(F)cc3Br)c2)CC1 here?
Answer: inconclusive: -52.2%

Question: With CC(=O)OC(C(=O)Nc1ccccc1)C(C)S(=O)(=O)c1ccccc1 (stereo not given) as the compound, how does the activity change, negative = inhibition read?
Answer: inconclusive: -46.5%

Question: Which activity change, negative = inhibition does the source give for CCCCNc1nc(CC)c2c(c1C#N)CCCC2 here?
Answer: inconclusive: -44.3%

Question: For O=c1c2ccccc2nc(Cc2ccccc2)n1-c1ccccc1, which activity change, negative = inhibition is on record?
Answer: inactive: 46.7%

Question: Which activity change, negative = inhibition does the source give for C[n+]1ccccc1COc1ccc(C(C)(C)C)cc1 here?
Answer: inconclusive: -55.5%

Question: With OC1CCC(Nc2nccc3[nH]c(-c4ccccc4Cl)nc23)CC1 (stereo not given) as the compound, how does the activity change, negative = inhibition read?
Answer: inactive: -11%

Question: For COc1ccc(CC(=O)NNC(=O)CCC(=O)Nc2cc(C)ccc2C)cc1, which activity change, negative = inhibition is on record?
Answer: active: -104%

Question: Which activity change, negative = inhibition does the source give for Cc1ccc(O)c(C(=O)CC(=O)c2ccc(Cl)cc2)c1 here?
Answer: inconclusive: -44.7%

Question: With COc1ccc(NC(=O)Nc2nnc(-c3ccncc3)s2)cc1 as the compound, how does the activity change, negative = inhibition read?
Answer: inconclusive: -59.8%

Question: Which activity change, negative = inhibition does the source give for S=C(Nc1ccccc1Oc1ccccc1)NC1CCCC1 here?
Answer: inconclusive: -40.7%

Question: With CCOC(=O)c1sc(N2C(=O)C(O)=C(C(=O)c3ccco3)C2c2ccco2)nc1C (stereo not given) as the compound, how does the activity change, negative = inhibition read?
Answer: inconclusive: -51.8%

Question: Which activity change, negative = inhibition does the source give for O=C(c1sc2ccccc2c1Cl)N1CCN(c2ncccn2)CC1 here?
Answer: active: -62.5%

Question: With Cn1c(=O)oc2cc(S(=O)(=O)N3CCCC(C(=O)N4CCc5ccccc5C4)C3)ccc21 (stereo not given) as the compound, how does the activity change, negative = inhibition read?
Answer: inconclusive: -55.7%

Question: For Cc1ccc(-n2c(C)cn(C(=O)c3ccccc3)c2=S)cc1, which activity change, negative = inhibition is on record?
Answer: inconclusive: -44.5%

Question: For O=C(NC1(C(F)(F)F)N=C2SCCN2C1=O)c1ccccc1 (stereo not given), which activity change, negative = inhibition is on record?
Answer: inactive: 15.8%

Question: With COc1cccc(CN2CCC(N(CCc3ccccc3)Cc3ccccc3)CC2)c1OC as the compound, how does the activity change, negative = inhibition read?
Answer: active: -64.3%

Question: For COc1cc(C(O)c2nc(-c3cc(F)cc(F)c3)cs2)ccc1F (stereo not given), which activity change, negative = inhibition is on record?
Answer: inconclusive: -42.5%

Question: For Cc1nc(SCc2ccccc2F)c2oc3ccccc3c2n1, which activity change, negative = inhibition is on record?
Answer: inconclusive: -50.7%
